Results as given in PMC2169300, “Signal-Regulated Pre-mRNA Occupancy by the General Splicing Factor U2AF”.
Results are given in words; binding and its absence hold for the method and conditions named. For some of these results: Binding seen in cells or lysates may run through a third protein. Some binding calls cover weakened binding; strength is not graded here. For some of these results: Sequences can lack the tags named with a protein.

Sequences of proteins named here, by UniProt entry; tags and fusion partners are left off. Residues count along the entry.
UniProt Q60749: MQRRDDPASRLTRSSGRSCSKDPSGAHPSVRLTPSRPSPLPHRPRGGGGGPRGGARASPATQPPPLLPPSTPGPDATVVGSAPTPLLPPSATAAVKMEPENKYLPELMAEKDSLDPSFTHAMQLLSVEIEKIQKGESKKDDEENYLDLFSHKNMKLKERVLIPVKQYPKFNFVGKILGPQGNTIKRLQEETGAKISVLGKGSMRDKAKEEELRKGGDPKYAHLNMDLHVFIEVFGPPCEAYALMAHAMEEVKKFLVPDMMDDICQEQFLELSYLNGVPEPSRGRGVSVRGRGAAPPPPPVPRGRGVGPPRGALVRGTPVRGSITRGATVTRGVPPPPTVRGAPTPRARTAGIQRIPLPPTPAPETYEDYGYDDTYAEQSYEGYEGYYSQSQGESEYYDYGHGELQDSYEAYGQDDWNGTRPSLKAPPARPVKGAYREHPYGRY
UniProt P26368, residues 2-475: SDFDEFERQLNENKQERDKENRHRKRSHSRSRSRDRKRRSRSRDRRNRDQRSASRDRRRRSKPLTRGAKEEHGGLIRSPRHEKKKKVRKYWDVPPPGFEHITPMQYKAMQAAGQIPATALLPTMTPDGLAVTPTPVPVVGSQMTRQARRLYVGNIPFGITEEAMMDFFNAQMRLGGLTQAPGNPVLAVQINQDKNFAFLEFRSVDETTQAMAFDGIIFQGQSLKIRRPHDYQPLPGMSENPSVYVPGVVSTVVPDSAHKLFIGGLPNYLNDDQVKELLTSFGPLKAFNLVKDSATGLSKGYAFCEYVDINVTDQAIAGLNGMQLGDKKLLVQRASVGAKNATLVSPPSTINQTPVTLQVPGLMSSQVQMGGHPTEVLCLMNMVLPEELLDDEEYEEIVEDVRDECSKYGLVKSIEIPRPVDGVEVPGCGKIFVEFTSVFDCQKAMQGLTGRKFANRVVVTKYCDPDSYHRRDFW
UniProt P26369: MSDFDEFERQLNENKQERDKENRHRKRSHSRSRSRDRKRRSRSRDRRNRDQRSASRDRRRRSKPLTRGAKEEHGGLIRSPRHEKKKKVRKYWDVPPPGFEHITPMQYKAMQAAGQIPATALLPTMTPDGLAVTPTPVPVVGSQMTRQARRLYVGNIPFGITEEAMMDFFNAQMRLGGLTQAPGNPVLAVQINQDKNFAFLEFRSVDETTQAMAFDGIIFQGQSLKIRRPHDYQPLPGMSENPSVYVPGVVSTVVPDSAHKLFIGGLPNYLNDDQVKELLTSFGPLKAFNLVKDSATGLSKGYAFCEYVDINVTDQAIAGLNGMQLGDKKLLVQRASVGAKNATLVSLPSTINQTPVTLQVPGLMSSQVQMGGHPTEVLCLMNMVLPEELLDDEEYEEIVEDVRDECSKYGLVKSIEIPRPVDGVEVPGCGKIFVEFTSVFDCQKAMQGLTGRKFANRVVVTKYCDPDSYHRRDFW

What was measured:
[1] = biological target: Sam68 (endogenous, LB17 mouse lymphoma cells) (mouse (endogenous in LB17)) (UniProt Q60749); assay: co-IP; LB17 mouse lymphoma cell lysate (50 mM Tris-HCl pH 8.0, 100 mM NaCl, 0.5% NP40), anti-Sam68 antibody C20 on protein A/G agarose, 4 C 1 h; immunoblot with anti-U2AF65; with or without RNase A (0.2 ug/ul) before and during precipitation
[2] = biological target: T1, GST-fusion protein of U2AF35 (human) (UniProt Q01081); assay: pull-down; data not shown: GST-fusions of U2AF65 and U2AF35 with recombinant Sam68 left unphosphorylated or phosphorylated by ERK in vitro; both purified
T1 sequence: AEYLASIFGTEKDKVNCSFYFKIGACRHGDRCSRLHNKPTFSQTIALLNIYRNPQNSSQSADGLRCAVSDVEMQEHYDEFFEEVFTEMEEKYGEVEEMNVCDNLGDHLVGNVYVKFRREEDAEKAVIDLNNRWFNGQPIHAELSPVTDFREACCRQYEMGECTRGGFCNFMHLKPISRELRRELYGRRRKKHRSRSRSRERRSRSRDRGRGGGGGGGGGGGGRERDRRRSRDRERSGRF

[3] = biological target: GST-fusion protein of U2AF65 (human) (UniProt P26368); assay: as above
[4] = biological target: T1, GST-fusion protein of U2AF35 (human); assay: pull-down; 0.5-1 ug GST-U2AF fusion protein or GST with 100 or 200 ng His-Sam68 in 50 ul binding buffer (10 mM HEPES pH 7.9, 150 mM KCl, 0.1% NP40, 0.5 mg/ml BSA, 1 mM DTT, 1 mM PMSF), 30 C 1 h; glutathione sepharose at room temperature 90 min; immunoblot with anti-Sam68; both purified
[5] = biological target: GST-fusion protein of U2AF65 (human) (UniProt P26368); assay: as above

Substance	binding [1]	binding [2]	binding [3]	binding [4]	binding [5]
U2AF65 (endogenous, LB17 mouse lymphoma cells) (from UniProt P26369 1-475)	binds				
recombinant His-tagged Sam68 (from UniProt Q60749 1-443)		binds	binds	binds	binds
recombinant Sam68 phosphorylated by ERK in vitro (from UniProt Q60749 1-443)		binds	binds		
